PubChem BioAssay AID504444 (National Center for Advancing Translational Sciences (NCATS), 2011)
Screen size: about 360,000 compounds; about 7,500 (2.1%) were called active. Inconclusive results, whose numbers are uncertain, are shown with a selection of clear calls. Calls follow the shape of the dose curve; as a rule, active = well fitted inhibition curve with a large enough effect; inconclusive = small, poorly fitted or top-dose-only effect, or effect the other way; inactive = flat fitted curve, though single readings scatter. A potency beside an inconclusive call is a rough fit, not a confirmed value.
Potency is read from the fitted curve at half-maximal effect.

Assay: Nrf2 qHTS screen for inhibitors; also: nearly all actives have a fitted effect of over 60% in size
Settings: A549 ARE-Fluc reporter, luciferase luminescence, 18-24 h; series mostly up to 46 µM
How it was run: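 Cells were seeded and rested 2 h, then exposed to compounds for 18-24 h. CellTiter-Fluor was read first as a viability measure. BugLite was added 15 min before the final luminescent read of ARE-luciferase activity in A549 cells.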
With `Cc1ccc(NC(=O)CSCc2cnn(-c3ccccc3)c2-n2cccc2)c(C)c1` the Potency was inconclusive: 29.1 µM [falling, single point].
With `Cc1ccc(NC(=O)CCn2c(=O)oc3ccccc32)cc1` the Potency was inconclusive: 0.731 µM [activator, full curve, poor fit].
In the case of `Cc1c(C(=O)N2CCN(c3ccccn3)CC2)sc2ncnc(N3CCOCC3)c12`, the Potency is reported as “inactive”.
For `COC(=O)c1ccc(NCCc2csc(-c3ccc(C)cc3)n2)c([N+](=O)[O-])c1`, the Potency was inconclusive: 29.1 µM [activator, single point].
In the case of `CCc1ccc(CNC(=O)c2ccc(CSc3nc4ccncc4n3Cc3ccc(OC)cc3)cc2)cc1`, the Potency is reported as inconclusive: 18.4 µM [falling, single point].
In the case of `COc1ccc(N2CCN(C(=O)Cc3coc4ccc(C)cc34)CC2)cc1`, the Potency is reported as inconclusive: 1.84 µM [falling, full curve, poor fit].
In the case of `Cc1c(NC(=O)/C(C#N)=C/c2ccc(-c3ccc(Cl)cc3)o2)c(=O)n(-c2ccccc2)n1C`, the Potency is reported as inconclusive: 18.4 µM [falling, single point].
In the case of `S=C(NCc1ccccn1)Nc1ccc(Cl)cc1Cl`, the Potency is reported as inconclusive: 7.31 µM [activator, single point].
With `CC(C)C(=O)Nc1nc(-c2ccc3c(c2)CCN3C(=O)C2CC2)cs1` the Potency was inconclusive: 18.4 µM [activator, partial curve].
For `CC(C)Oc1cccc(NC(=O)C2CCN(S(=O)(=O)Cc3ccccc3)CC2)c1`, the Potency was “inactive”.
For `CCOC(=O)c1sc2nc3c(cc2c1N)COC(C(C)C)C3` (centres undefined), the Potency was inconclusive: 9.2 µM [activator, partial curve, poor fit].
With `COc1ccc(N2CCN(c3ccc(Cl)nn3)CC2)cc1` the Potency was inconclusive: 4.61 µM [falling, partial curve, poor fit].
In the case of `CCCc1cc(C(=O)Nc2ccc(OC)cc2[N+](=O)[O-])cs1`, the Potency is reported as inconclusive: 8.2 µM [activator, partial curve].
With `O=C(NNc1ncnc2sccc12)c1ccc(Cl)cc1` the Potency was inconclusive: 20.6 µM [falling, single point].
For `Cn1c(=O)c(C(=O)NCCc2ccc(Cl)cc2)c(O)c2ccccc21`, the Potency was inconclusive: 32.6 µM [falling, single point].
With `COc1ccc2cc(C3=CC(=O)CCC3)ccc2c1` the Potency was inconclusive: 7.31 µM [activator, partial curve].
In the case of `COc1ccccc1N1CCN(Cc2nc(N)nc(Nc3ccccc3)n2)CC1`, the Potency is reported as inconclusive: 11.6 µM [falling, partial curve, poor fit].
For `O=c1c2cn[nH]c2nc(SCc2ccc3c(c2)OCCO3)n1-c1ccccc1`, the Potency was active: 20.6 µM.
For `N#C/C(=C\c1ccc(-c2ccccc2C(=O)O)o1)c1nc2ccccc2[nH]1`, the Potency was inconclusive: 29.1 µM [activator, single point].
With `Cc1cc(-c2ccc(C)c(S(=O)(=O)N3CCCC(C)C3)c2)on1` (centres undefined) the Potency was inconclusive: 29.1 µM [falling, single point].
For `Cc1ccc(-c2cc(C(F)F)nc(N3CCC(C)CC3)n2)cc1`, the Potency was inconclusive: 29.1 µM [falling, single point].
With `Nc1cccc(-c2nc3cc(S(=O)(=O)c4ccc5oc(-c6cccc(N)c6)nc5c4)ccc3o2)c1` the Potency was inconclusive: 2.59 µM [falling, full curve, poor fit].
With `COC(=O)c1c(C)oc2ccc(N(C(=O)c3ccncc3)S(=O)(=O)c3cc(C)c(C)cc3C)cc12` the Potency was active: 9.2 µM.
With `Cc1cccc(Nc2nc(N)nc(CSc3nccn3C)n2)c1` the Potency was inconclusive: 4.11 µM [activator, full curve].
In the case of `c1ccc(-c2noc(-c3cccs3)n2)nc1`, the Potency is reported as inconclusive: 29.1 µM [falling, single point].
For `CC(C)(C)Nc1nc(Cl)nc(N(C#N)CN2C(=O)c3ccccc3S2(=O)=O)n1`, the Potency was inconclusive: 2.59 µM [falling, partial curve, poor fit].
In the case of `O=C(O)c1cc(N/N=C/C=C/c2ccccc2)ccc1Cl`, the Potency is reported as inconclusive: 16.4 µM [activator, partial curve].
With `Cc1cccc(OCC(=O)N/N=C\c2cc3c(cc2[N+](=O)[O-])OCO3)c1C` the Potency was inconclusive: 16.4 µM [falling, partial curve].
With `COc1ccc2cc(C(=O)/C=C/c3cc(OC)c(O)c(OC)c3)ccc2c1` the Potency was inconclusive: 25.9 µM [activator, single point].
With `COCCn1c(=N)c(C(=O)NCc2ccco2)cc2c(=O)n3ccccc3nc21` the Potency was “inactive”.
For `CCOC(=O)N1CCC(NC(=O)c2ccc3c(c2)N(Cc2cccc(C)c2)C(=O)c2ccccc2S3(=O)=O)CC1`, the Potency was “inactive”.
With `COc1cc(OC)cc(C(=O)Nc2cccc(NC(=O)c3ccccc3)c2)c1` the Potency was inconclusive: 16.4 µM [falling, partial curve, poor fit].
For `Cc1nc(N2CCCC2)c2c(C(=O)Nc3ccc(C)c(Cl)c3)c(C)oc2n1`, the Potency was inconclusive: 2.91 µM [activator, full curve].
For `Cc1nn(C)c(C)c1CNC(=O)c1cc2n(n1)C(C(F)(F)F)CC(c1cccs1)N2` (centres undefined), the Potency was active: 18.4 µM.
For `N#C/C(=C\c1cn(CCOc2ccccc2)c2ccccc12)C(=O)NCc1ccco1`, the Potency was inconclusive: 11.6 µM [falling, partial curve, poor fit].
In the case of `CCOC(=O)Cc1csc(N/C(=N/S(=O)(=O)c2ccc(F)cc2F)c2ccccc2)n1`, the Potency is reported as inconclusive: 0.0461 µM [falling, full curve, poor fit].
For `O=C(CNC(=O)c1ccco1)OCc1ccc(C(=O)c2ccccc2)cc1`, the Potency was inconclusive: 25.9 µM [falling, single point].
In the case of `Nc1nc(-c2cc(O)ccc2[N+](=O)[O-])cc(-c2ccccc2)c1[N+](=O)[O-]`, the Potency is reported as inconclusive: 29.1 µM [falling, single point].
With `CCCOc1cccc(C(=O)Nc2ccc3c(c2)OCCO3)c1` the Potency was inconclusive: 1.16 µM [activator, full curve, poor fit].
For `O=C(Nc1ccccc1)Nc1ccc2ocnc2c1`, the Potency was inconclusive: 8.2 µM [activator, partial curve, poor fit].
In the case of `COCC(C)OC(=O)c1c(N)n(CC(C)C)c2nc3ccccc3nc12` (centres undefined), the Potency is reported as “inactive”.
With `COc1ccc(-c2noc(CN(C)C(=O)Nc3ccccc3)n2)cc1` the Potency was inconclusive: 29.1 µM [falling, single point].
With `CC1CCN(C(=O)Nc2ccc3nsnc3c2)CC1` the Potency was inconclusive: 5.8 µM [activator, partial curve].
With `O=C(CSc1nnc(COc2ccc(Cl)cc2)o1)Nc1ccccc1` the Potency was inconclusive: 29.1 µM [falling, single point].
With `Oc1ccccc1-c1cc(-c2ccccc2)n[nH]1` the Potency was inconclusive: 20.6 µM [activator, partial curve].
In the case of `Oc1ccc(-c2csc(-c3cccnc3)n2)c(O)c1`, the Potency is reported as inconclusive: 20.6 µM [activator, single point].
For `Cc1ccc(CN2CCSc3ccc(C(=O)Nc4ccc(Cl)cc4)cc32)cc1`, the Potency was inconclusive: 20.6 µM [activator, partial curve].
With `Cn1c(N)c(C(=O)COC(=O)c2cc(C3CC3)nc3ccccc23)c(=O)n(C)c1=O` the Potency was “inactive”.
With `COCCNC(=O)c1ccc2c3n(nc2c1)-c1ccc(C)cc1CO3` the Potency was inconclusive: 0.731 µM [activator, full curve, poor fit].
For `Cc1nc2cccnc2n1C1CCN(S(=O)(=O)c2ccc(Cl)cc2)CC1`, the Potency was inconclusive: 32.6 µM [falling, single point].
With `CCOc1ccc2c(c1)sc(=NC(=O)C1CC1)n2C` the Potency was inconclusive: 16.4 µM [activator, partial curve].
For `CC(C)(CNC(=S)NCCc1ccccc1)CNC(=S)NCCc1ccccc1`, the Potency was inconclusive: 29.1 µM [falling, single point].
With `Cc1nonc1NC(=O)CSc1nc(CCC2CCCC2)nc2ccccc12` the Potency was inconclusive: 2.59 µM [falling, partial curve].
For `COC(=O)c1ccc(N=NN2CCCCC2)cc1`, the Potency was inconclusive: 20.6 µM [activator, single point].
In the case of `C=CCc1ccccc1OCCOc1ccc([N+](=O)[O-])cc1/C=N/NC(N)=O`, the Potency is reported as “inactive”.
For `CC(C)CN(C(=O)CCNC(=O)c1ccccc1Cl)C1CCS(=O)(=O)C1` (centres undefined), the Potency was “inactive”.
With `Cc1ccccc1S(=O)(=O)N1[C@@H](c2cccc(Cl)c2)C(C(=O)O)=CC[C@H]1c1ccc(Cl)cc1` the Potency was inconclusive: 11.6 µM [falling, partial curve].
For `Cc1cccc(N2C(=O)C(CC(=O)Nc3cccc(F)c3)N(Cc3cccs3)C2=O)c1` (centres undefined), the Potency was “inactive”.
In the case of `Cc1ccc(Nc2cc(C)nc3nc(Cc4ccc(Cl)cc4)nn23)cc1`, the Potency is reported as inconclusive: 29.1 µM [falling, single point].
In the case of `Cc1ccc(-n2nc(C)c(NS(=O)(=O)c3ccccc3)c2C)cc1C`, the Potency is reported as inconclusive: 6.51 µM [falling, partial curve, poor fit].
For `O=C(Nc1cccc([N+](=O)[O-])c1)C(=O)N1CCCCC1`, the Potency was inconclusive: 5.17 µM [activator, full curve].
In the case of `CCOC(=O)c1c(/N=C/C2=C(O)CC(C)(C)CC2=O)sc(C(C)=O)c1C`, the Potency is reported as inconclusive: 4.11 µM [falling, full curve, poor fit].
With `COc1cccc(CNC(=O)Cn2c(=O)oc3cc(S(=O)(=O)N4CCCC4)ccc32)c1` the Potency was “inactive”.
With `Cc1ccc(-c2ccc(=O)n(Cc3ccc(F)cc3)n2)cc1` the Potency was inconclusive: 20.6 µM [falling, partial curve].
